Results from US20240366784A1, “INJECTABLE HYDROGEL COMPOSITIONS AND METHODS OF USE THEREOF” (Drexel University, priority 2023, published 2024).
At least one structure is not confirmed: it was looked up by name or label, or the drawing left a doubt.

Tests used:
RAW264.7 cells = experiment: qPCR transcriptional analysis of zymosan-activated RAW264.7 macrophages; type: cell-based, murine; conditions: zymosan 100 μg/mL, drug 1 μM, 24 hrs
Method: For secondary identification of M2-promoting drugs, transcriptional analysis using qPCR was performed. RAW264.7 cells were plated at 1×10^6 cells/well in 24 well plates. After 24 h, media was replaced, and IL-4 (10 ng/mL, PeproTech) or zymosan (100 μg/mL) were included to serve as internal controls for M2-like and M1-like phenotypes, respectively. Treatment groups were concurrently activated via zymosan and treated with 1 μM drug concentrations, n=3 per group. After 24 hrs, cells were lysed by freezing, RNA was extracted (RNEasy Mini Kit; Qiagen), and cDNA synthesis was performed (High-Capacity cDNA Reverse Transcription Kit; Fisher). Samples were subject to qPCR using Taqman Fast Advanced Master Mix and probes (Fisher) for analysis of hprt (Mm01545399_m1), nos2 (Mm00440502_m1), il12b (Mm01288989_m1), il6 (Mm00446190_m1), mrc1 (Mm00485148_m1), il10 (Mm01288386_m1), and arg1 (Mm00475988_m1). Data is expressed as a fold change in gene expression using the ΔΔCt method, relative to the hprt and zymosan-treated controls.

[1] = test system: Bone marrow derived macrophages (BMDMs); experiment: nanoString gene expression analysis in zymosan-activated bone marrow derived macrophages; type: cell-based, mouse; conditions: zymosan 100 μg/mL, drug 1 μM, 24 hrs
Method: Cells were maintained under standard culture conditions (37° C., 5% CO2) in the indicated medium which was replenished every two days. The murine MF cell lines, RAW 264.7 (ATCC) and RAW-Blue™ (InvivoGen), were cultured in Dulbecco's Modified Eagle Medium (DMEM) supplemented with heat-inactivated fetal bovine serum (FBS), and 1% penicillin-streptomycin (Pen-Strep). RAW-Blue™ media was additionally supplemented by 100 μg/ml Normocin with the addition of 100 μg/ml of Zeocin every other passage to maintain selection pressure, as recommended by the manufacturer. Cells were passaged at 70% confluency. Primary MF were derived from murine and human tissues. Bone marrow derived macrophages (BMDMs) were isolated and derived according to standard protocols. Marrow was extracted from the surgically resected femur and tibia of male C57BL/6 mice, dissociated, and filtered using a 40 μm strainer. Red blood cells were lysed with ammonium chloride, and recovered cells were plated at 2×10^6 cells/well in 24 well plates and maintained in Iscove's Modification of DMEM (IMDM) supplemented with 10% heat-inactivated FBS, 1% Pen-Strep, and 10 ng/mL recombinant mouse macrophage colony-stimulating factor (M-CSF; PeproTech). Primary human monocytes were isolated from peripheral blood (New York Blood Center) from a single healthy human donor via density centrifugation as previously described in the literature. Harvested monocytes were cultured for 5 days on non-tissue culture-treated well plates in RPMI-1640 media supplemented with 10% heat-inactivated human serum, 1% Pen-Strep, and 20 ng/mL recombinant human M-CSF (PeproTech).
For in depth transcriptional profiling of best drug candidates (piclamilast and celastrol), primary murine and human cells were subject to nanoString analysis. BMDMs were differentiated in 24 well plates as described. Zymosan (100 μg/mL) and IL-4 (10 ng/mL) treatments were again included as internal references for M1-like and M2-like MF phenotypes, respectively. Cells were treated with 1 μM of the prescribed compounds for 24 hrs, n=3 per group. Following RNA extraction, nanoString multiplex gene expression analysis was performed using 100 ng of extracted RNA and a custom-designed panel of 91 genes (Table 1), which relate primarily to murine MF phenotypes, as well as angiogenesis and fibrosis. Transcriptional analysis was similarly performed for human MF. Following differentiation from peripheral blood monocytes as described, cells were stimulated with lipopolysaccharide (LPS, 100 ng/mL). After 24 hrs, celastrol was added (1-10 μM, 24 hrs). RNA was isolated (RNAqueous-Micro Total RNA Isolation Kit, Fisher) and nanoString was performed with a custom-designed panel of 70 genes related primarily to MF phenotypes, angiogenesis, and fibrosis (Table 2). […]

[2] = Surface plasmon resonance of drug binding to CD; conditions: equilibrium analysis by SPR; celastrol binding to CD; read-out: equilibrium binding constant (Keq)
[3] = test system: Human monocyte-derived MF; experiment: nanoString gene expression analysis in LPS-activated human monocyte-derived macrophages; type: cell-based; conditions: LPS 100 ng/mL, celastrol 1-10 μM, 24 hrs

CC1=C(O)C(=O)C=C2C1=CC=C1[C@@]2(C)CC[C@@]2(C)[C@@H]3C[C@](C)(C(=O)O)CC[C@]3(C)CC[C@]12C [celastrol]
expression of M1-like genes (nos2, il6, il12b) (RAW264.7 cells): significantly downregulated
expression of M2-like genes (mrc1, arg1, il10) (RAW264.7 cells): upregulation
downregulation of M1-associated genes relative to M1 controls [1]: typically greater for celastrol than for piclamilast
expression of irf4 and cc122 [1]: upregulated irf4 and cc122 to levels consistent with M2-like controls
expression of pro-inflammatory cytokines tnf, il1b, il6 [1]: downregulated
expression of tgfb1 [1]: drastically downregulated
Kd [2]: 474 µM
expression of M2-associated genes (mrc1, ccl18, cc122, cxcr4) [3]: typically upregulated
expression of inflammatory chemokines (ccl8), cytokines (il1b, i16) and immunoregulatory enzymes (idol) [3]: suppressed in a dose-dependent fashion
expression of cd80 ([3]; vs LPS-treated controls): decreased expression
